Results as given in article PMC5507668.

Protein sequences, listed by entry. Tags and fused reporters are not part of them.
UniProt P29341: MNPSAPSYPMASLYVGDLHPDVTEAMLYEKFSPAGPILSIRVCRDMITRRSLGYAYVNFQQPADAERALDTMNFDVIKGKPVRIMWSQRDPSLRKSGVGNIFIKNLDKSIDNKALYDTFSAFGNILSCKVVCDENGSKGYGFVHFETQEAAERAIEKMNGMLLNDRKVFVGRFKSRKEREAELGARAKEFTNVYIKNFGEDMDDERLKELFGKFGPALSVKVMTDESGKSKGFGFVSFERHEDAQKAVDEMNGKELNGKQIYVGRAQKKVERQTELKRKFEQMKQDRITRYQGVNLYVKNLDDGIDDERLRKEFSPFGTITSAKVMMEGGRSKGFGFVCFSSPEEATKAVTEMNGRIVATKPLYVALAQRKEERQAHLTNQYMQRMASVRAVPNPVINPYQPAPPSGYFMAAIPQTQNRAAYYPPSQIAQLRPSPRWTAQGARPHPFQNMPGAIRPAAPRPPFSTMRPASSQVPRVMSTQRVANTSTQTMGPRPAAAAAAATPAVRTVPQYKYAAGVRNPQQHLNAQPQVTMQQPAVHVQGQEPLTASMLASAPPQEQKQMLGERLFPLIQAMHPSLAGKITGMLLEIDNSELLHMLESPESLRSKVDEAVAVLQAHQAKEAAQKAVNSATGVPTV

B1: 14-3-3θ, endogenous (protein, UniProt P68254 1-245)
chain: MEKTELIQKAKLAEQAERYDDMATCMKAVTEQGAELSNEERNLLSVAYKNVVGGRRSAWRVISSIEQKTDTSDKKLQLIKDYREKVESELRSICTTVLELLDKYLIANATNPESKVFYLKMKGDYFRYLAEVACGDDRKQTIENSQGAYQEAFDISKKEMQPTHPIRLGLALNFSVFYYEILNNPELACTLAKTAFDEAIAELDTLNEDSYKDSTLIMQLLRDNLTLWTSDSAGEECDAAEGAEN

Target: T1, endogenous Zfp36 with a knocked-in V5 epitope tag (Zfp36-V5) (mouse (endogenous in BMDMs of the knock-in mouse)) (UniProt P22893)
T1 sequence: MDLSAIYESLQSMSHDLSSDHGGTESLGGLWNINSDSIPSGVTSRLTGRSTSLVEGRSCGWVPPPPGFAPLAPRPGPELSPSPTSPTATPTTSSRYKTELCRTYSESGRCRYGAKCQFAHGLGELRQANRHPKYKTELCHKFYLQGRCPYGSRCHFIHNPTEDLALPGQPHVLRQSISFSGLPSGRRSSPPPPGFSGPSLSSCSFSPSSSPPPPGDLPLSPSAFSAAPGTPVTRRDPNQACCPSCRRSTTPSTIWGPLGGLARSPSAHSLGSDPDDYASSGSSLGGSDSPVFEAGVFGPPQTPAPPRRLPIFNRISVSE
Test: affinity purification with mass spectrometry; IP of endogenous Zfp36-V5 with a V5 antibody (IgG as control) from BMDMs after 4 hr of LPS, with RNaseA; tandem mass-tag quantitative proteomics, three biological replicas

| Molecule | binding |
| --- | --- |
| cytoplasmic poly(A)-binding protein 1 (Pabpc1), endogenous (from UniProt P29341 1-636) | binds |
| B1 | binds |

No constants are given. Whether binding was seen depends on the method and setting. Binding seen in cells or lysates may run through a third protein. Here binding means that the protein was enriched with, or labelled near, the bait; the list need not be complete. Sequences can lack the tags named with a protein.
